Source: the supplement of paper PMC10849652
The list shows a part of the results.

Amino acid sequences for entries named in this document (tags omitted). A change or cut given only in a name is not applied to a line headed by its entry.
UniProt Q9NX38: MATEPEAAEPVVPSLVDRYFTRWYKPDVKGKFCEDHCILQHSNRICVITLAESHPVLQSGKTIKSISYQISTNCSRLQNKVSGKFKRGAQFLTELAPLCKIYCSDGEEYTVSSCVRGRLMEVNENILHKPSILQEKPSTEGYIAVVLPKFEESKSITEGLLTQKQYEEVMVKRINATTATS
UniProt Q8WTS1: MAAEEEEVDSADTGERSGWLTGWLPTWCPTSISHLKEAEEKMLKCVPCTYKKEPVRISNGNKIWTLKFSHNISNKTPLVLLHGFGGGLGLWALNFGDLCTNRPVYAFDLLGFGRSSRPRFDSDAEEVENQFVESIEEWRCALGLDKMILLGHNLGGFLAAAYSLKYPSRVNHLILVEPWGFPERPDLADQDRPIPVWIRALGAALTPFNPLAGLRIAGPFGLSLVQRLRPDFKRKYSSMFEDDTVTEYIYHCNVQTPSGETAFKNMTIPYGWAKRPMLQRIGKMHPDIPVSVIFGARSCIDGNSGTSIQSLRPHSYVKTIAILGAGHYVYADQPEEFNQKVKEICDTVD
UniProt O00763, whole entry, looked up: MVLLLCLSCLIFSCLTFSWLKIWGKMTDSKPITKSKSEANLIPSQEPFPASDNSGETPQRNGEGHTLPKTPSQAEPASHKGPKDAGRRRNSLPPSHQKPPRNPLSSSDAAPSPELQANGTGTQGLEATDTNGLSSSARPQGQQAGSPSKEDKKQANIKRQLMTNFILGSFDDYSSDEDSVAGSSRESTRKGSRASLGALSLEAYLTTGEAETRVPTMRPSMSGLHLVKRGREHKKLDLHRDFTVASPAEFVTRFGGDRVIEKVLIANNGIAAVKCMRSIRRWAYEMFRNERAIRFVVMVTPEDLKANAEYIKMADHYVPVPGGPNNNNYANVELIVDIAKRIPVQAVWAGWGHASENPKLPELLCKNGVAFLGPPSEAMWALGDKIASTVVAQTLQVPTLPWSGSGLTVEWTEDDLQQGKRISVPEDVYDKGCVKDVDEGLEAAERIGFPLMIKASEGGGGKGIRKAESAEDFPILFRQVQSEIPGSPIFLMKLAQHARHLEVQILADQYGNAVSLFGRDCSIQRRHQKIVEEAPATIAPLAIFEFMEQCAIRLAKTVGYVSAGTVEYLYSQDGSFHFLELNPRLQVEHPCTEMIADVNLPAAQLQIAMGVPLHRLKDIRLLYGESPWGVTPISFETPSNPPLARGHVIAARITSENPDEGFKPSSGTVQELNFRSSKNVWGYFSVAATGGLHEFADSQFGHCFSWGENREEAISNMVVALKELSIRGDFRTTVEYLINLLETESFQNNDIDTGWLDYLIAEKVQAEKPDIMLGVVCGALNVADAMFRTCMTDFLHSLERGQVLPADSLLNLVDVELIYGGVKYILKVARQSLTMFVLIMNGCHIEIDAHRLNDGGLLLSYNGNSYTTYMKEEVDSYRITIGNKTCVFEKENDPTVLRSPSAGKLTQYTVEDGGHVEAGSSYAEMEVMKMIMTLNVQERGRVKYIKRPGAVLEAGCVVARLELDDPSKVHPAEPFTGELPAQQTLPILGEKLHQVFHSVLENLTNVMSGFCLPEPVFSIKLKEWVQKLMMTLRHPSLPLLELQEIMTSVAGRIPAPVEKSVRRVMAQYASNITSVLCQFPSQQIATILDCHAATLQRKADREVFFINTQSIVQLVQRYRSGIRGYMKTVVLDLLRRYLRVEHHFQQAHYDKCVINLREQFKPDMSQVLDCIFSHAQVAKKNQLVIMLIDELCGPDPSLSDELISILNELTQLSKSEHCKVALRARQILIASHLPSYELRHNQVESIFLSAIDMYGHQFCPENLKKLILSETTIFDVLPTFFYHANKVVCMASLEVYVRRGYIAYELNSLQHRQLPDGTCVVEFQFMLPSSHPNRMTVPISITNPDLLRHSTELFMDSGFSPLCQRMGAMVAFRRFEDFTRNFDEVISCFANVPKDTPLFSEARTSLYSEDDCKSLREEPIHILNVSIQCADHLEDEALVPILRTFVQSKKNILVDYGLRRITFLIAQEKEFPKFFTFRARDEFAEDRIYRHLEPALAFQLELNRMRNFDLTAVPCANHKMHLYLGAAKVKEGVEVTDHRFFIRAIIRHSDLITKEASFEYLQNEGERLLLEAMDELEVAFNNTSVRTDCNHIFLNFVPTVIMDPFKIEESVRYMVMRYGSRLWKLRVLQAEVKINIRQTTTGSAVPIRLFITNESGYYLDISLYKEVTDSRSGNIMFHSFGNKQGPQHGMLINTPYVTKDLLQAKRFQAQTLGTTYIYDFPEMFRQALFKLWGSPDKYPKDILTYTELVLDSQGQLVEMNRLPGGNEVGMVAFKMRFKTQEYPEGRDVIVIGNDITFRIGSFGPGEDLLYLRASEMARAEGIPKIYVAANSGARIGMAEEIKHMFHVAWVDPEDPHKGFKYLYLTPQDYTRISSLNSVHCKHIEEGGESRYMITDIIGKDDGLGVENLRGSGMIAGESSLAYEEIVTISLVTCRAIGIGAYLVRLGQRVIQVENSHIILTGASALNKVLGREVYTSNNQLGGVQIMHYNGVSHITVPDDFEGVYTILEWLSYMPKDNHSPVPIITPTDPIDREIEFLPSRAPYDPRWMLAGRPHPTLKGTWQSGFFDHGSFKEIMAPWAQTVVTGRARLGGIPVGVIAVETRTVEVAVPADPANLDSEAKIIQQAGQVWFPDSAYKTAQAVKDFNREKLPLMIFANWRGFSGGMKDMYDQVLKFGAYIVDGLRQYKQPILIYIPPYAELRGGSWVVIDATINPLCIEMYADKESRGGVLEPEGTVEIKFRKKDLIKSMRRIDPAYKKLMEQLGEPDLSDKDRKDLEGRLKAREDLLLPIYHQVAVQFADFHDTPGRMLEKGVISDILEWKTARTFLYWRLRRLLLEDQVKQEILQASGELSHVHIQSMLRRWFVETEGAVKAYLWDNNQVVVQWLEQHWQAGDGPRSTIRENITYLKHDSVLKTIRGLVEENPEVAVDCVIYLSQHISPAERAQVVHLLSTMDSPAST
UniProt P09110: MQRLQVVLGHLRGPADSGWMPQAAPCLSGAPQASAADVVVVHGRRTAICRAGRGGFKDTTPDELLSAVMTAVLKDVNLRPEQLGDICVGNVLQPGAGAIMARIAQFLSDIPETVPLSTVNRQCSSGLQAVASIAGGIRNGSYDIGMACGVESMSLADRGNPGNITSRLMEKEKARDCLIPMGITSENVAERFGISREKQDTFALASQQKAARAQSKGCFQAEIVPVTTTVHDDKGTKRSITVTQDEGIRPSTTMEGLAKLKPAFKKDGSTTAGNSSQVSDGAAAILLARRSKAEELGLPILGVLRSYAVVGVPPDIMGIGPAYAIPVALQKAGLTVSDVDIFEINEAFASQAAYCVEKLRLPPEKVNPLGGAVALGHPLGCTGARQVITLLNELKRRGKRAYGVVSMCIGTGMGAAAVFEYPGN
UniProt Q5VST6: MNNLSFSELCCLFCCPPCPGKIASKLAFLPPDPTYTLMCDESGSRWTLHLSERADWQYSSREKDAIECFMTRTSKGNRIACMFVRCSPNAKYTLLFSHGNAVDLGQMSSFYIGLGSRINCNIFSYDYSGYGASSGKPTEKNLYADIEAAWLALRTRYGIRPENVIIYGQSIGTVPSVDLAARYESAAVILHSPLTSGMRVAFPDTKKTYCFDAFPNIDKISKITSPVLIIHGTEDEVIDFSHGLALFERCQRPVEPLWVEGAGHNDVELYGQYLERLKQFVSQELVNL
UniProt P16219: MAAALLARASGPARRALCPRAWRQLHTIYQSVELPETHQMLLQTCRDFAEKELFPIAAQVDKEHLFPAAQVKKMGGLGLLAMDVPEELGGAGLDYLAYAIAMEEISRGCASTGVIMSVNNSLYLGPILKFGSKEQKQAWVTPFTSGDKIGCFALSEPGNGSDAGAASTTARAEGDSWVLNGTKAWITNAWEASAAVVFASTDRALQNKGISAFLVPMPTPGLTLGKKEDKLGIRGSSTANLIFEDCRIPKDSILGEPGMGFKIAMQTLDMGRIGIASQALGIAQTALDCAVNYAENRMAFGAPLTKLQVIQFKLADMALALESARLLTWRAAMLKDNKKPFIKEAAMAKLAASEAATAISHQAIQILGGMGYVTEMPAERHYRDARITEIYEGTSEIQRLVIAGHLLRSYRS
UniProt P24752: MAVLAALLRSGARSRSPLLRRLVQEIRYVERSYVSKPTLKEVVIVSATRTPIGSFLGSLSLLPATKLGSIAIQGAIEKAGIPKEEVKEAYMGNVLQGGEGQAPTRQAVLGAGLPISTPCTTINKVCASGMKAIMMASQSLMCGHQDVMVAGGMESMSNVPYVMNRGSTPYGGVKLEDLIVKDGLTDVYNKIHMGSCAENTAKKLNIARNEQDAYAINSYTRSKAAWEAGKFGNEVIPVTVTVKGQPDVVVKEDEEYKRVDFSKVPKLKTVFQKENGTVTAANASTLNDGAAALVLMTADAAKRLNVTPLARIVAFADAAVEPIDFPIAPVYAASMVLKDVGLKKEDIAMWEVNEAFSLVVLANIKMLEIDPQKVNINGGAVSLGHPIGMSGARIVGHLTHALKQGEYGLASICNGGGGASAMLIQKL
UniProt Q9UKV3: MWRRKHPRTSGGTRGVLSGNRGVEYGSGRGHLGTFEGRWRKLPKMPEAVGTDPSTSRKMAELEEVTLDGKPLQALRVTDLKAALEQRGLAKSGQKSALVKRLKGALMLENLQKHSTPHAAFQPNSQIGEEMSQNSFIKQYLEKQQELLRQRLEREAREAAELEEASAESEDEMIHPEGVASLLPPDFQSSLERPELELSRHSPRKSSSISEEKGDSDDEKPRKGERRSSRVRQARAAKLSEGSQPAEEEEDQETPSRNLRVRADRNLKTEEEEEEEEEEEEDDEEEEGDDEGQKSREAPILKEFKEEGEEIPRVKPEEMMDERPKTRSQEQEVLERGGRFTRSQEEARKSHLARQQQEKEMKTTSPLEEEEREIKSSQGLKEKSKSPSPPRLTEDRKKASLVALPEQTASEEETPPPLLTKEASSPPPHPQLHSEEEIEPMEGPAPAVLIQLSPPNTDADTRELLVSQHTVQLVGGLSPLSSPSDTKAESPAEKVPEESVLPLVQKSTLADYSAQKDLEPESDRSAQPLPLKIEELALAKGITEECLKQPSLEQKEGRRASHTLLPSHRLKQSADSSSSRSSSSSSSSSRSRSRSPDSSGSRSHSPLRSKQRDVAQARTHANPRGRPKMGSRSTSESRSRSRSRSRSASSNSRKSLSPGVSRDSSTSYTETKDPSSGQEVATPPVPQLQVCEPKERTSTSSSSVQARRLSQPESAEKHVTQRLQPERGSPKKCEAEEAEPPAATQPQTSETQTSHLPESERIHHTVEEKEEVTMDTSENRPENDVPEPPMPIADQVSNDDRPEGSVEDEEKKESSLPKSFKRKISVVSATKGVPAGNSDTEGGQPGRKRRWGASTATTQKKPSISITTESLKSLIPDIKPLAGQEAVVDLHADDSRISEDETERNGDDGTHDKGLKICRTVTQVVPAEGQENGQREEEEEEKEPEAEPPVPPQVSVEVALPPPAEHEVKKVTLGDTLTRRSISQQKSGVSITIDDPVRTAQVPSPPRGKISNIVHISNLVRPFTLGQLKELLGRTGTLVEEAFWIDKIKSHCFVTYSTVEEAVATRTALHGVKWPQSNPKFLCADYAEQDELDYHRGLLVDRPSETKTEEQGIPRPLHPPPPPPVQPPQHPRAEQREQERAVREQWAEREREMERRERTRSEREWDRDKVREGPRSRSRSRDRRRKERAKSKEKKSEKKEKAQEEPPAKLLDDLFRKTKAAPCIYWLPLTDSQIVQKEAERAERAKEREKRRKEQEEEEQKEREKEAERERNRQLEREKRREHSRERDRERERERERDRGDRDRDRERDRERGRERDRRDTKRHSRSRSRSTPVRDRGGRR
UniProt Q9NUQ8: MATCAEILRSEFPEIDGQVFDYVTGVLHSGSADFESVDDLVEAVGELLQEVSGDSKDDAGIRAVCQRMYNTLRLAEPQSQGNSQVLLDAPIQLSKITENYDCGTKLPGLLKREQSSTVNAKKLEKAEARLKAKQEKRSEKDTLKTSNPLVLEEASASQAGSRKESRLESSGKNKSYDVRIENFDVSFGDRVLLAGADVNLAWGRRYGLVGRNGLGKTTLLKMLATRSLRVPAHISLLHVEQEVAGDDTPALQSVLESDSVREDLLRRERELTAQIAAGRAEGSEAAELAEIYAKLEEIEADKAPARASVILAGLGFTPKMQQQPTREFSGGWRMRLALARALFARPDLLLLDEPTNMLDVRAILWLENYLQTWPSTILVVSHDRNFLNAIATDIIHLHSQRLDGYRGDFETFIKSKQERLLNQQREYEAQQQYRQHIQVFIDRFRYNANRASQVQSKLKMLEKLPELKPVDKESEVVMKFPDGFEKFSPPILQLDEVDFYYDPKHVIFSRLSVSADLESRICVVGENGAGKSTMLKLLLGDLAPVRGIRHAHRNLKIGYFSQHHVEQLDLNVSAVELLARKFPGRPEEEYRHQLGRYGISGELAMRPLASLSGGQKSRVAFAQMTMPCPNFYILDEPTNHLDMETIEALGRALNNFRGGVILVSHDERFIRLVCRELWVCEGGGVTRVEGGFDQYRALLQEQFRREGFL

Tests used:
Assay in all cases: log2 fold change, soluble protein after heating vs DMSO (PISA); higher = thermal stabilisation; K562 lysate, 10 uM; active = over 0.2 and 3.5 SD of the protein, either way, in both replicates (recomputed)
erlotinib = compound: C#Cc1cccc(Nc2ncnc3cc(OCCOC)c(OCCOC)cc23)c1 [erlotinib]
How it was run: (§1)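 Soluble protein was defined as the supernatant remaining after 21,000xg for 90 min, following pooling of heated aliquots and adjustment to 0.5% NP-40 at 4°C. Before that, crude K562 extract at 1 mg/mL protein in PBS pH 7.4 with 1 mM MgCl2 was treated with 10 μM compound for 30 min and heated for 3 min across 48°C-58°C. Quantification used TMTpro 16plex LC-MS/MS with channel sums equalised, and values are log-two fold changes in thermal stability relative to solvent controls from duplicates.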

[1] = compound: C/C(=N\NC(=O)C1=CC(=CC=C1)S(=O)(=O)N2CCOCC2)/C3=C(C=CC(=C3)Cl)O
How it was run: as §1

[2] = compound: C1=CC(=CC=C1C2=NC3=C(N2)C=C(C=C3)C(=O)N)OC4=CC=C(C=C4)Cl
How it was run: as §1

[3] = compound: C1=CC2=C(C=CC(=C2)/C=C\3/C(=O)NC(=NCC4=CC=CS4)S3)N=C1
How it was run: as §1

[4] = compound: C1=CC2=NC=CN=C2C=C1/C=C/3\C(=O)NC(=O)S3
How it was run: as §1

[5] = compound: C1=CC=C(C=C1)C2=NC(=C(N2)C3=CC=NC=C3)C4=CC(=C(C=C4)Cl)O
How it was run: as §1

[6] = compound: C1=CC=C2C(=C1)C3=NNC4=CC=CC(=C43)C2=O
How it was run: as §1

[7] = compound: C1CCN(C1)C(=O)NC2=CC=CC(=C2)NC3=NC=C(C(=N3)NCCC4=CN=CN4)Br
How it was run: as §1

[8] = compound: C1CN(CCC1(CC2=CC=C(C=C2)Cl)N)C3=NC=NC4=C3C=CN4
How it was run: as §1

IRAK-1-4 Inhibitor I = compound: C1COCCN1CCN2C3=CC=CC=C3N=C2NC(=O)C4=CC(=CC=C4)[N+](=O)[O-] [IRAK-1-4 Inhibitor I]
How it was run: as §1

ibrutinib = compound: C=CC(=O)N1CCC[C@@H](n2nc(-c3ccc(Oc4ccccc4)cc3)c3c(N)ncnc32)C1 [ibrutinib]
How it was run: as §1

[9] = compound: CC(=O)c1cnc2ccc(-c3cc(Cl)c(O)c(Cl)c3)nc2c1N[C@H]1CC[C@H](CN(C)C)CC1
How it was run: as §1

ralimetinib = compound: CC(C)(C)Cn1c(N)nc2ccc(-c3[nH]c(C(C)(C)C)nc3-c3ccc(F)cc3)nc21 [ralimetinib]
How it was run: as §1

[10] = compound: CC(C)(O)CC(=O)NCCn1ccc2ncnc(Nc3ccc(Oc4cccc(C(F)(F)F)c4)c(Cl)c3)c21
How it was run: as §1

[11] = compound: CC(C)C1=C2N=C(C=C(N2N=C1)NCC3=CC=CC=C3)NCCCCCCN
How it was run: as §1

[12] = compound: CC1=C(C(CC(=O)N1)C2=CC=C(C=C2)C(F)(F)F)C(=O)NC3=C(C=C4C(=C3)C=NN4)F
How it was run: as §1

[13] = compound: CC1=C(C2=C(C=C1)C(=O)C3=CC=CC=C3N2CCCN)C
How it was run: as §1

[14] = compound: CC1=C(C=C(C=C1)NC(=O)C2=CC(=CC=C2)C(C)(C)C#N)NC3=CC4=C(C=C3)N=CN(C4=O)C
How it was run: as §1

[15] = compound: CC1=C(C=C(C=C1)NC(=O)C2=CC(=CC=C2)N(C)C)NC(=O)C3=CC=C(C=C3)O
How it was run: as §1

[16] = compound: CC1=CC=C(C=C1)SC2=C3C=C(SC3=CN=C2)C(=O)N
How it was run: as §1

Measured: log2 fold change

ACO2 (UniProt Q99798)
inactive: erlotinib -0.019 | [1] -0.044 | [2] 0.026 | [3] -0.032 | [4] -0.008 | [5] -0.016 | [6] -0.003 | [7] -0.022 | [8] 0.04 | IRAK-1-4 Inhibitor I 0.026 | ibrutinib -0.007 | [9] 0.011 | ralimetinib -0.006 | [10] -0.031 | [11] -0.007 | [12] -0.017 | [13] 0.016 | [14] -0.004 | [15] -0.012 | [16] -0.005

ABITRAM (UniProt Q9NX38)
inactive: erlotinib 0.056 | [1] -0.227 | [2] -0.008 | [3] -0.032 | [4] 0.023 | [5] -0.045 | [6] -0.072 | [7] -0.003 | [8] 0.038 | IRAK-1-4 Inhibitor I 0.004 | ibrutinib 0.024 | [9] 0.061 | ralimetinib 0.001 | [10] -0.01 | [11] -0.048 | [12] 0.044 | [13] -0.049 | [14] 0.005 | [15] 0.049 | [16] -0.096

ABHD5 (UniProt Q8WTS1)
inactive: erlotinib 0.009 | [1] 0.042 | [2] -0.035 | [3] -0.036 | [4] -0.064 | [5] 0.003 | [6] -0.135 | [7] -0.084 | [8] -0.046 | IRAK-1-4 Inhibitor I -0.048 | ibrutinib -0.028 | [9] 0.049 | ralimetinib -0.013 | [10] -0.072 | [11] 0.032 | [12] 0.037 | [13] -0.026 | [14] 0.029 | [15] 0.01 | [16] -0.034

ACACB (UniProt O00763)
inactive: erlotinib 0.042 | [1] 0.097 | [2] -0.025 | [3] 0.018 | [4] -0.02 | [5] -0.01 | [6] -0.008 | [7] -0.005 | [8] 0.015 | IRAK-1-4 Inhibitor I 0.025 | ibrutinib 0.051 | [9] 0.018 | ralimetinib 0.069 | [10] 0.032 | [11] 0.014 | [12] -0.036 | [13] 0.015 | [14] 0.021 | [15] 0.052 | [16] 0.022

ACAA1 (UniProt P09110)
inactive: erlotinib 0.03 | [1] -0.455 | [2] 0.041 | [3] 0.015 | [4] 0.03 | [5] -0.036 | [6] 0.016 | [7] 0.014 | [8] -0.024 | IRAK-1-4 Inhibitor I -0.006 | ibrutinib 0.046 | [9] -0.012 | ralimetinib -0.054 | [10] -0.003 | [11] 0 | [12] -0.02 | [13] -0.016 | [14] 0.044 | [15] 0.001 | [16] -0.007

ABHD17B (UniProt Q5VST6)
inactive: erlotinib -0.08 | [1] -0.047 | [2] -0.011 | [3] 0.044 | [4] -0.043 | [5] 0 | [6] 0.021 | [7] 0.064 | [8] -0.111 | IRAK-1-4 Inhibitor I 0.014 | ibrutinib 0.067 | [9] -0.031 | ralimetinib -0.053 | [10] -0.037 | [11] -0.036 | [12] -0.076 | [13] 0.001 | [14] 0.013 | [15] 0.127 | [16] 0.018

ACADS (UniProt P16219)
inactive: erlotinib -0.013 | [1] 0.021 | [2] -0.013 | [3] 0.062 | [4] -0.012 | [5] 0.001 | [6] -0.046 | [7] 0.01 | [8] 0.027 | IRAK-1-4 Inhibitor I 0.017 | ibrutinib -0.006 | [9] 0.031 | ralimetinib 0.004 | [10] -0.026 | [11] -0.002 | [12] -0.041 | [13] -0.022 | [14] 0.004 | [15] -0.027 | [16] 0.018

ACAT1 (UniProt P24752)
inactive: erlotinib 0.011 | [1] 0.006 | [2] -0.015 | [3] 0.015 | [4] 0.017 | [5] -0.002 | [6] -0.007 | [7] -0.028 | [8] 0.015 | IRAK-1-4 Inhibitor I 0.017 | ibrutinib 0.002 | [9] 0.005 | ralimetinib 0.003 | [10] 0.002 | [11] -0.002 | [12] 0.001 | [13] 0.034 | [14] -0.013 | [15] -0.007 | [16] 0.015

ABCF1 (UniProt Q8NE71)
inactive: erlotinib -0.001 | [1] 0.033 | [2] -0.013 | [3] 0.003 | [4] -0.006 | [5] 0.015 | [6] 0.003 | [7] 0.009 | [8] 0.01 | IRAK-1-4 Inhibitor I -0.028 | ibrutinib -0.01 | [9] -0.009 | ralimetinib 0.01 | [10] 0.005 | [11] -0.005 | [12] -0.003 | [13] -0.023 | [14] 0.008 | [15] 0.046 | [16] 0.023

ACADSB (UniProt P45954)
inactive: erlotinib -0.016 | [1] 0.033 | [2] -0.011 | [3] -0.043 | [4] 0.012 | [5] -0.074 | [6] -0.048 | [7] 0.006 | [8] -0.003 | IRAK-1-4 Inhibitor I -0.024 | ibrutinib 0.003 | [9] 0.015 | ralimetinib -0.061 | [10] -0.074 | [11] -0.092 | [12] -0.005 | [13] -0.242 | [14] 0.005 | [15] 0.019 | [16] -0.023

ABT1 (UniProt Q9ULW3)
inactive: erlotinib 0 | [1] -0.154 | [2] 0.049 | [3] -0.002 | [4] -0.031 | [5] 0.002 | [6] -0.131 | [7] -0.072 | [8] -0.008 | IRAK-1-4 Inhibitor I 0.056 | ibrutinib -0.016 | [9] 0.091 | ralimetinib 0.019 | [10] -0.041 | [11] 0.012 | [12] -0.025 | [13] -0.048 | [14] 0.025 | [15] 0.033 | [16] 0.088

ACIN1 isoform 5 (UniProt Q9UKV3)
inactive: erlotinib -0.011 | [1] -0.025 | [2] -0.023 | [3] -0.028 | [4] -0.037 | [5] 0.001 | [6] -0.001 | [7] -0.006 | [8] -0.007 | IRAK-1-4 Inhibitor I -0.006 | ibrutinib -0.004 | [9] -0.015 | ralimetinib -0.011 | [10] -0.028 | [11] -0.021 | [12] -0.024 | [13] -0.001 | [14] -0.042 | [15] 0.003 | [16] -0.016

2 records drawn at random from those above, as already listed:
ACIN1 isoform 5 (UniProt Q9UKV3)
inactive: erlotinib -0.011 | [1] -0.025 | [2] -0.023 | [3] -0.028 | [4] -0.037 | [5] 0.001 | [6] -0.001 | [7] -0.006 | [8] -0.007 | IRAK-1-4 Inhibitor I -0.006 | ibrutinib -0.004 | [9] -0.015 | ralimetinib -0.011 | [10] -0.028 | [11] -0.021 | [12] -0.024 | [13] -0.001 | [14] -0.042 | [15] 0.003 | [16] -0.016

ACADSB (UniProt P45954)
inactive: erlotinib -0.016 | [1] 0.033 | [2] -0.011 | [3] -0.043 | [4] 0.012 | [5] -0.074 | [6] -0.048 | [7] 0.006 | [8] -0.003 | IRAK-1-4 Inhibitor I -0.024 | ibrutinib 0.003 | [9] 0.015 | ralimetinib -0.061 | [10] -0.074 | [11] -0.092 | [12] -0.005 | [13] -0.242 | [14] 0.005 | [15] 0.019 | [16] -0.023

Further records.

ABCE1 (UniProt P61221)
inactive: erlotinib -0.019 | [1] -0.007 | [2] 0.027 | [3] 0.014 | [4] -0.003 | [5] -0.01 | [6] 0.038 | [7] 0.011 | [8] -0.006 | IRAK-1-4 Inhibitor I 0.151 | ibrutinib -0.033 | [9] 0.023 | ralimetinib -0.008 | [10] -0.005 | [11] -0.016 | [12] -0.026 | [13] 0.017 | [14] -0.009 | [15] -0.008 | [16] -0.002

ABCF3 (UniProt Q9NUQ8)
inactive: erlotinib 0.005 | [1] 0.013 | [2] -0.049 | [3] 0.011 | [4] 0.009 | [5] -0.011 | [6] -0.065 | [7] 0.022 | [8] -0.033 | IRAK-1-4 Inhibitor I -0.037 | ibrutinib 0.008 | [9] 0.035 | ralimetinib 0.067 | [10] 0.046 | [11] -0.013 | [12] 0.009 | [13] -0.012 | [14] -0.02 | [15] 0.018 | [16] 0.001

ABI2 (UniProt Q9NYB9)
inactive: erlotinib -0.02 | [1] -0.001 | [2] -0.022 | [3] -0.011 | [4] -0.002 | [5] 0.051 | [6] -0.008 | [7] 0.005 | [8] 0.015 | IRAK-1-4 Inhibitor I -0.009 | ibrutinib 0.055 | [9] 0.016 | ralimetinib 0.03 | [10] -0.002 | [11] -0.002 | [12] 0.015 | [13] 0.039 | [14] -0.069 | [15] -0.034 | [16] 0.089
